{"sequences": {"note": "Sequences of proteins named here, by UniProt entry; tags and fusion partners are left off.", "UniProt D2D055": "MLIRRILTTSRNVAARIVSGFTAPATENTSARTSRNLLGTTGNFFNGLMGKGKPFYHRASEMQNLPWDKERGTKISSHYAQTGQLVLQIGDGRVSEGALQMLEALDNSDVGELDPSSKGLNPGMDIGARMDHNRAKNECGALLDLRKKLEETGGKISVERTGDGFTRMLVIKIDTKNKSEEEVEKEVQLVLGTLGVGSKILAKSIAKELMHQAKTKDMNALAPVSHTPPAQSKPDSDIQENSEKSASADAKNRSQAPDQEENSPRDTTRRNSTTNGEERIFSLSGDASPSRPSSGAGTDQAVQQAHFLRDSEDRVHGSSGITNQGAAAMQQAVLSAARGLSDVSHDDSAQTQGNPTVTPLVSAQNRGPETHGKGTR", "UniProt O00560": "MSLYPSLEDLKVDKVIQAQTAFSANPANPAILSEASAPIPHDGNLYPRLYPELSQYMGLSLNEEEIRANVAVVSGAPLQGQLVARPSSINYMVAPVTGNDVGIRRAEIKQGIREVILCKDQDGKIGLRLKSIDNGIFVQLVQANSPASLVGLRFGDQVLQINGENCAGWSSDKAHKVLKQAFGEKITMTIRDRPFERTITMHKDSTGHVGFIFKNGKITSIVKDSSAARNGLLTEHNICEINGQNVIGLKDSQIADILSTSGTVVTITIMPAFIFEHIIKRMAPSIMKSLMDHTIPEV"}, "source": "paper PMC10523776", "biological_target": "Ats-1-His (pcDNA3.1-Ats-1) (Anaplasma phagocytophilum) (UniProt D2D055)", "assay": "co-IP; Ats-1-His and SDCBP-Myc co-transfected into HEK293T, 48 h, native lysis buffer; immunoprecipitated with anti-His or anti-Myc antibody and protein G-agarose, blotted for the Myc or His tag", "note": "These are yes or no findings as the source states them, for the method shown. In cells and extracts the contact can be indirect. Some results given as binding are weak or reduced against the parent protein; the word gives no strength."}
{"substance": "SDCBP-Myc (pcDNA3.1) (from UniProt O00560 1-298)", "values": [{"measurement": "binding", "value": "binds"}]}
